Assay results reported in publication PMC5101189, “Structure of the MIS12 Complex and Molecular Basis of Its Interaction with CENP-C at Human Kinetochores” (Cell, 2016).
Results are given in words; binding and its absence hold for the method and conditions named. For part of these data: Binding seen in cells or lysates may run through a third protein. Some entries that bind do so weakly or less than the wild type.

By UniProt entry, the sequences of proteins in these tests, tags left out. Where a name states a change or a piece, a line headed by the entry shows the natural chain unless it says otherwise. Chains listed by the source or under a name are the forms on record and can include a tag or linker. Residues count along the entry.
UniProt Q9H081: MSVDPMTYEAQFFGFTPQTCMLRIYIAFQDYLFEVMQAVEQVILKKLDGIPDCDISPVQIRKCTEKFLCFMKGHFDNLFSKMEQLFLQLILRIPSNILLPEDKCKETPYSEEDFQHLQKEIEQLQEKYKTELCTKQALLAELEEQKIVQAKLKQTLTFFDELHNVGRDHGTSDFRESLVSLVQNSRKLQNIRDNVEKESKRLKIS
GFP-MIS12C^MIS12-YFF (Q9H081, form named): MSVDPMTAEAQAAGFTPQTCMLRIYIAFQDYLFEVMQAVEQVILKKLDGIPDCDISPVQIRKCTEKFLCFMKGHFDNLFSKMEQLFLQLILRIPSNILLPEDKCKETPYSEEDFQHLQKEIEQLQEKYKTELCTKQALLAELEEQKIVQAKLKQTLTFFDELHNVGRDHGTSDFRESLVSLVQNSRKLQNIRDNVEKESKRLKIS
UniProt Q9H410, residues 68-356: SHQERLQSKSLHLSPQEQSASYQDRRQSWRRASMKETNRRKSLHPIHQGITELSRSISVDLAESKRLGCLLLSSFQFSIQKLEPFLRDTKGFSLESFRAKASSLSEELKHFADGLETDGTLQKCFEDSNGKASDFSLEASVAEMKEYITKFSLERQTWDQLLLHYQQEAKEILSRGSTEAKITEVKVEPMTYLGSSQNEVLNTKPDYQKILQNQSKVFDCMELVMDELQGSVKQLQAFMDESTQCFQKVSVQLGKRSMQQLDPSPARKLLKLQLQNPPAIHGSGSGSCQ
UniProt Q96IY1, residues 1-206: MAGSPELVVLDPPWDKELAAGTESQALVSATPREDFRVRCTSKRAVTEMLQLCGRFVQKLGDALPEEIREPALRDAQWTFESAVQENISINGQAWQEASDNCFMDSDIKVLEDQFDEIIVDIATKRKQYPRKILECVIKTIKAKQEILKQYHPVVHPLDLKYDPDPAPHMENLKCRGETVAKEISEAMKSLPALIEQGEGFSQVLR
UniProt Q8NG31: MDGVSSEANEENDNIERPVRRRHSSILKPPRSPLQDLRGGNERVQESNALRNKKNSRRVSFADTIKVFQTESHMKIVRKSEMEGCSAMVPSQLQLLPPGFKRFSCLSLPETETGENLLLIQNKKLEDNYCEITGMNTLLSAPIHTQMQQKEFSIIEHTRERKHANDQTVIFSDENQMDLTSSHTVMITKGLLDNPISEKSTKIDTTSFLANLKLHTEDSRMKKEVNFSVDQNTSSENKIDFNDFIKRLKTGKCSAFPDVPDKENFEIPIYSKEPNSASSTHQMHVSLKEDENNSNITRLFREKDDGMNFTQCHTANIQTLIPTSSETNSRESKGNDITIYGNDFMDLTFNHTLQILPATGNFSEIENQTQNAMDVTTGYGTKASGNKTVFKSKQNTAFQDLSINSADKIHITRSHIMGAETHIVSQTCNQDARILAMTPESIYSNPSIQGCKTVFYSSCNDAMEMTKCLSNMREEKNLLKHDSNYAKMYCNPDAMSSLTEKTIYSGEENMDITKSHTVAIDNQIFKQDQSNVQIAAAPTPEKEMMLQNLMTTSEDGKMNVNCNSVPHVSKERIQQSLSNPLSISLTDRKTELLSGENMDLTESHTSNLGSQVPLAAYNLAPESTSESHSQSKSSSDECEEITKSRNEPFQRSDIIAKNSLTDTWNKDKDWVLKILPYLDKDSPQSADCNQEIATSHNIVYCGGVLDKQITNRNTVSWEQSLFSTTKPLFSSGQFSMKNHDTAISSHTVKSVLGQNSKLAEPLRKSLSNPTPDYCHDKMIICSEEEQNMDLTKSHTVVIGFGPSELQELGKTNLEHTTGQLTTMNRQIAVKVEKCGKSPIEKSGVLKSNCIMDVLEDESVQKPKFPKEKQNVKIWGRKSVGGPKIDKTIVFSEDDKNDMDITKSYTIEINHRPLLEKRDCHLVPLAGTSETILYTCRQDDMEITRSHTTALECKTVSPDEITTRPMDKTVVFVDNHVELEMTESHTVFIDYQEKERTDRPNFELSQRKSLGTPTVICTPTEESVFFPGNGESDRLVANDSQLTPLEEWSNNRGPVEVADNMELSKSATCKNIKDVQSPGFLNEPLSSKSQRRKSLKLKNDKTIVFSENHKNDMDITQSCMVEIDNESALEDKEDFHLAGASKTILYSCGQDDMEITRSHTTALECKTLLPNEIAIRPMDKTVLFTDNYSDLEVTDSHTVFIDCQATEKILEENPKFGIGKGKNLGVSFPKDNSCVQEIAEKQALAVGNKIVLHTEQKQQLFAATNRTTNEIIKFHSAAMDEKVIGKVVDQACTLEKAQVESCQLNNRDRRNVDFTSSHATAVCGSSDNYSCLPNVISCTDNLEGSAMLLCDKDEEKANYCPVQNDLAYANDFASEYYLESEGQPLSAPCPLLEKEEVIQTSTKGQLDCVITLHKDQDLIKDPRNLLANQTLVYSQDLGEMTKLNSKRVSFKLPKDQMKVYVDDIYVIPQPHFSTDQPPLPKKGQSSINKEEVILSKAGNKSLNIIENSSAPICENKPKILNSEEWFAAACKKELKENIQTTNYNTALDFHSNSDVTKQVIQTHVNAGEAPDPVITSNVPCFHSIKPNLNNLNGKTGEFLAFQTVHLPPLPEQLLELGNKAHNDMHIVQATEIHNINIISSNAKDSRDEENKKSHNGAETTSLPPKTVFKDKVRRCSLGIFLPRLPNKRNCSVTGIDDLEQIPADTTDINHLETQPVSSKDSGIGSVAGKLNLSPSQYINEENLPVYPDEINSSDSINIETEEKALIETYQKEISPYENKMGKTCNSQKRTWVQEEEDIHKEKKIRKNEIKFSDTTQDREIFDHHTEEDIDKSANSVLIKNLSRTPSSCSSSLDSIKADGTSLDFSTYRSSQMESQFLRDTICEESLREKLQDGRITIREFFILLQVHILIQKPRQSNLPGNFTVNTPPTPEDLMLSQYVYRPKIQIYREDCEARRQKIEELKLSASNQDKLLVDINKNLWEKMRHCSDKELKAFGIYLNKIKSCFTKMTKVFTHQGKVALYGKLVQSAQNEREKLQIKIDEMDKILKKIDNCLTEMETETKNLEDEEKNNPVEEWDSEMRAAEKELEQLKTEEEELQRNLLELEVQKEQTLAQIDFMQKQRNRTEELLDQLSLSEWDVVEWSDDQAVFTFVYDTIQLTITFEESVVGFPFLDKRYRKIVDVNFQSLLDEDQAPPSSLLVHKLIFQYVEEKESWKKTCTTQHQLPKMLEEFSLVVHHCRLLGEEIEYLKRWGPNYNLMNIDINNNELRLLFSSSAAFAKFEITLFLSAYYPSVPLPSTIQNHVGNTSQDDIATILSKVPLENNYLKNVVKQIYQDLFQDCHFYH
UniProt O14777: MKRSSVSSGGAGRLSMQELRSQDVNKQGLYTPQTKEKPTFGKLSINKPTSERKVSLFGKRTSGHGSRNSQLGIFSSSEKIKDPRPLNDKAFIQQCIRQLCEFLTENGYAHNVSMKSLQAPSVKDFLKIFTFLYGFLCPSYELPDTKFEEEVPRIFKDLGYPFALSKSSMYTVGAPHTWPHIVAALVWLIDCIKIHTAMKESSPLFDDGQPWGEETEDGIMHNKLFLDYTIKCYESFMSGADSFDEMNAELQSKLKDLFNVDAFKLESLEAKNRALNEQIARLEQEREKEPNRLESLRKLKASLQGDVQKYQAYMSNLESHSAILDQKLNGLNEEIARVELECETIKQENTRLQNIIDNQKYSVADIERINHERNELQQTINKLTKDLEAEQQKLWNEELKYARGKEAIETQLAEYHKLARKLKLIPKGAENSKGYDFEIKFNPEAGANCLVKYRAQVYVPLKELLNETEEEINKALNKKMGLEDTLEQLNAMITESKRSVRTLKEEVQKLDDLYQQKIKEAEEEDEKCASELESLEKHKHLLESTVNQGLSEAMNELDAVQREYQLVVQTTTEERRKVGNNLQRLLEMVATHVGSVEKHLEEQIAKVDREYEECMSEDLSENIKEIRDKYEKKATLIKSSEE

Legend:
[1] = biological target: T1, PMF1 (subunit of MIS12C^Nano) (human) (UniProt Q6P1K2); test: crystal structure; MIS12C^Nano:CENP-C^1-71 complex, in situ proteolysis with α-chymotrypsin 1:1000 (w/w), sitting drops at 4°C, PEG6K pH 6-8; 3.5 Å; MIS12C subunits co-expressed and purified as a complex; both purified
T1 sequence: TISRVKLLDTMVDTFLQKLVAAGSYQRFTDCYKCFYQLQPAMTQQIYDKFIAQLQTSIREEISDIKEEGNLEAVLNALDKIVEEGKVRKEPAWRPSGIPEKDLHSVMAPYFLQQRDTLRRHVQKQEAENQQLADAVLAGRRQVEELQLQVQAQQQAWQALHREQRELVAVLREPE

[2] = biological target: MIS12 (subunit of MIS12C^Nano) (human) (UniProt Q9H081); test: as above
[3] = biological target: GFP-MIS12^WT (human) (UniProt Q9H081); test: co-IP; GFP-Trap from lysates of mitotic (shake-off) Flp-In T-REx HeLa cells expressing GFP-MIS12 constructs; 75 mM HEPES pH 7.5, 150 mM KCl, 0.075% NP-40; 3 hr at 4°C; western blot
[4] = biological target: GFP-MIS12C^MIS12-YFF (human) (UniProt Q9H081); test: as above

binding [1]	binding [2]	binding [3]	binding [4]	Substance
binds	binds			DSN1 (subunit of MIS12C^Nano) (from UniProt Q9H410 68-356) (domain or fragment)
binds	binds			NSL1 (subunit of MIS12C^Nano) (from UniProt Q96IY1 1-206) (domain or fragment)

Continued, substance first:

Substance	binding [1]	binding [2]	binding [3]	binding [4]
MIS12 (subunit of MIS12C^Nano) (from UniProt Q9H081 1-205) (domain or fragment)	binds			
KNL1 (endogenous) (from UniProt Q8NG31 1-2342)			binds	binds
NDC80 (endogenous) (from UniProt O14777 1-642)			binds	binds
